# PubChem BioAssay AID248 (DTP/NCI, 2004)
# The list does not hold the whole screen: it covers a few groups of compounds. Other doses and runs of a compound may be missing. T/C gives the treated animals as a percentage of the vehicle group. Some entries give survivors of the animals treated and no T/C: the source files T/C as zero there, which appears to mark a toxic dose or a test without result, not a measured value. Survivors were counted at the toxicity check, usually on the fifth day, unless a day is given; later deaths do not show. Schedules are NCI's codes, read here as Q, the interval in days (D) or hours (H), X, the number of doses. For survival time, this PubChem deposit counts one and a half times the control or more as active, and values a quarter to a half above the control carry no call in these data; other NCI protocols may use other cut-offs. Additions like (4×) count equal records among those shown. Some doses were run more than once; the results are listed from low to high. Some schedules carry Z or #; the key to these is not given. Some T/C values carry the count of animals alive at the toxicity check (mostly the fifth day); where neither a count nor a note follows, no animal had died by that day.
# System: L1210 leukemia ip in BDF1 mice, survival T/C
# Test: NCI In Vivo Anticancer Drug Screen. Data for tumor model L1210 Leukemia (intraperitoneal) in B6D2F1 (BDF1) mice
# Settings: T/C endpoint: mean survival time, higher T/C = longer survival
structure (smiles),measurement,setting,value
NC1CCCCC1.O=P(O)(NCCCO)N(CCCl)CCCl,T/C,"dose: 12.5 mg/kg/injection, schedule: Q01DX Z (ip), vehicle: methylcellulose (MC)",117 % of control
same,T/C,"dose: 12.5 mg/kg/injection, schedule: Q01DX Z (ip), vehicle: saline",114 % of control
same,T/C,"dose: 16.0 mg/kg/injection, schedule: Q03HX008 (ip), vehicle: saline",110 % of control
same,T/C,"dose: 16.0 mg/kg/injection, schedule: Q03HX016 (ip), vehicle: saline",107 % of control
same,T/C,"dose: 16.0 mg/kg/injection, schedule: Q03HX024 (ip), vehicle: saline",119 % of control
same,T/C,"dose: 25.0 mg/kg/injection, schedule: Q01DX Z (ip), vehicle: methylcellulose (MC)",126 % of control
same,T/C,"dose: 25.0 mg/kg/injection, schedule: Q01DX Z (ip), vehicle: saline",94 % of control
same,T/C,"dose: 31.0 mg/kg/injection, schedule: Q01DX009 (oral), vehicle: saline",110 % of control
same,T/C,"dose: 32.0 mg/kg/injection, schedule: Q01DX005 (ip), vehicle: saline",111 and 114 % of control
same,T/C,"dose: 32.0 mg/kg/injection, schedule: Q01DX009 (ip), vehicle: saline",119 % of control (2×)
same,T/C,"dose: 32.0 mg/kg/injection, schedule: Q01DX009 (sc), vehicle: saline",98 % of control
same,T/C,"dose: 32.0 mg/kg/injection, schedule: Q03HX008 (ip), vehicle: saline",120 % of control
same,T/C,"dose: 32.0 mg/kg/injection, schedule: Q03HX016 (ip), vehicle: saline",130 % of control
same,T/C,"dose: 32.0 mg/kg/injection, schedule: Q03HX024 (ip), vehicle: saline",142 % of control
same,T/C,"dose: 50.0 mg/kg/injection, schedule: Q01DX Z (ip), vehicle: saline",104 % of control
same,T/C,"dose: 62.5 mg/kg/injection, schedule: Q01DX001 (ip), vehicle: clinical formulation",131 % of control
same,T/C,"dose: 62.5 mg/kg/injection, schedule: Q01DX001 (ip), vehicle: saline",118 % of control
same,T/C,"dose: 62.5 mg/kg/injection, schedule: Q01DX009 (oral), vehicle: saline",116 % of control
same,T/C,"dose: 64.0 mg/kg/injection, schedule: Q01DX005 (ip), vehicle: saline",128 and 134 % of control
same,T/C,"dose: 64.0 mg/kg/injection, schedule: Q01DX009 (ip), vehicle: saline",138 and 139 % of control
same,T/C,"dose: 64.0 mg/kg/injection, schedule: Q01DX009 (oral), vehicle: saline",111 % of control
same,T/C,"dose: 64.0 mg/kg/injection, schedule: Q01DX009 (sc), vehicle: saline",116 % of control
same,T/C,"dose: 64.0 mg/kg/injection, schedule: Q03HX008 (ip), vehicle: saline",145 % of control
same,T/C,"dose: 64.0 mg/kg/injection, schedule: Q03HX016 (ip), vehicle: saline",168 % of control
same,T/C,"dose: 64.0 mg/kg/injection, schedule: Q03HX024 (ip), vehicle: saline",207 % of control
same,T/C,"dose: 64.0 mg/kg/injection, schedule: Q04DX003 (ip), vehicle: saline",119 % of control
same,T/C,"dose: 64.0 mg/kg/injection, schedule: Q04DX003 (iv), vehicle: saline",104 % of control [9 of 10 alive]
same,T/C,"dose: 64.0 mg/kg/injection, schedule: Q## X003 (ip), vehicle: saline",120 % of control
same,T/C,"dose: 64.0 mg/kg/injection, schedule: Q## X024 (ip), vehicle: saline",104 % of control
same,T/C,"dose: 100.0 mg/kg/injection, schedule: Q01DX Z (ip), vehicle: methylcellulose (MC)",155 % of control
same,T/C,"dose: 100.0 mg/kg/injection, schedule: Q01DX Z (ip), vehicle: saline",110 and 155 % of control [5 of 6 alive]
same,T/C,"dose: 125.0 mg/kg/injection, schedule: Q01DX001 (ip), vehicle: clinical formulation",141 % of control
same,T/C,"dose: 125.0 mg/kg/injection, schedule: Q01DX001 (ip), vehicle: saline",136 % of control
same,T/C,"dose: 125.0 mg/kg/injection, schedule: Q01DX009 (oral), vehicle: saline",118 % of control
same,T/C,"dose: 125.0 mg/kg/injection, schedule: Q01DX Z (ip), vehicle: saline",132 % of control
same,T/C,"dose: 128.0 mg/kg/injection, schedule: Q01DX001 (ip), vehicle: saline",120 and 127 % of control
same,T/C,"dose: 128.0 mg/kg/injection, schedule: Q01DX001 (iv), vehicle: saline",100 % of control
same,T/C,"dose: 128.0 mg/kg/injection, schedule: Q01DX001 (sc), vehicle: saline",121 % of control
same,T/C,"dose: 128.0 mg/kg/injection, schedule: Q01DX005 (ip), vehicle: saline",169 and 214 % of control
same,T/C,"dose: 128.0 mg/kg/injection, schedule: Q01DX009 (ip), vehicle: saline",175 and 213 % of control
same,T/C,"dose: 128.0 mg/kg/injection, schedule: Q01DX009 (oral), vehicle: saline",119 % of control
same,T/C,"dose: 128.0 mg/kg/injection, schedule: Q01DX009 (sc), vehicle: saline",118 % of control
same,survivor count,"dose: 128.0 mg/kg/injection, schedule: Q03HX008 (ip), vehicle: saline",1 of 10
same,survivor count,"dose: 128.0 mg/kg/injection, schedule: Q03HX016 (ip), vehicle: saline",4 of 10
same,survivor count,"dose: 128.0 mg/kg/injection, schedule: Q03HX024 (ip), vehicle: saline",4 of 10
same,T/C,"dose: 128.0 mg/kg/injection, schedule: Q04DX003 (ip), vehicle: saline",142 % of control
same,T/C,"dose: 128.0 mg/kg/injection, schedule: Q04DX003 (iv), vehicle: saline",105 % of control [9 of 10 alive]
same,T/C,"dose: 128.0 mg/kg/injection, schedule: Q08DX002 (ip), vehicle: saline",125 % of control
same,T/C,"dose: 128.0 mg/kg/injection, schedule: Q## X002 (ip), vehicle: saline",134 % of control
same,T/C,"dose: 128.0 mg/kg/injection, schedule: Q## X003 (ip), vehicle: saline",135 % of control
same,T/C,"dose: 128.0 mg/kg/injection, schedule: Q## X008 (ip), vehicle: saline",112 % of control
same,T/C,"dose: 128.0 mg/kg/injection, schedule: Q## X016 (ip), vehicle: saline",110 % of control
same,T/C,"dose: 128.0 mg/kg/injection, schedule: Q## X024 (ip), vehicle: saline",117 % of control
same,T/C,"dose: 150.0 mg/kg/injection, schedule: Q01DX Z (ip), vehicle: saline",130 % of control
same,T/C,"dose: 176.0 mg/kg/injection, schedule: Q01DX001 (ip), vehicle: saline",159 % of control
same,T/C,"dose: 200.0 mg/kg/injection, schedule: Q01DX Z (ip), vehicle: saline",155 % of control
same,T/C,"dose: 225.0 mg/kg/injection, schedule: Q01DX Z (ip), vehicle: saline",229 % of control
same,T/C,"dose: 250.0 mg/kg/injection, schedule: Q01DX001 (ip), vehicle: clinical formulation",141 % of control
same,T/C,"dose: 250.0 mg/kg/injection, schedule: Q01DX001 (ip), vehicle: saline",136 % of control
same,T/C,"dose: 250.0 mg/kg/injection, schedule: Q01DX009 (oral), vehicle: saline",146 % of control
same,T/C,"dose: 256.0 mg/kg/injection, schedule: Q01DX001 (ip), vehicle: saline",150 and 160 % of control
same,T/C,"dose: 256.0 mg/kg/injection, schedule: Q01DX001 (iv), vehicle: saline",114 % of control
same,T/C,"dose: 256.0 mg/kg/injection, schedule: Q01DX001 (oral), vehicle: saline",106 % of control
same,T/C,"dose: 256.0 mg/kg/injection, schedule: Q01DX001 (sc), vehicle: saline",105 % of control
